This is one part of the list.
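Further: competitive chemoproteomic profiling in live THP-1 cells with an iodoacetamide desthiobiotin (IA-DTB) probe, comparing probe-labelled peptide intensities in compound-treated cells against DMSO-treated controls.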

Amino acid sequences for entries named in this document (tags omitted). A change or cut given only in a name is not applied to a line headed by its entry.
UniProt Q9NUQ6: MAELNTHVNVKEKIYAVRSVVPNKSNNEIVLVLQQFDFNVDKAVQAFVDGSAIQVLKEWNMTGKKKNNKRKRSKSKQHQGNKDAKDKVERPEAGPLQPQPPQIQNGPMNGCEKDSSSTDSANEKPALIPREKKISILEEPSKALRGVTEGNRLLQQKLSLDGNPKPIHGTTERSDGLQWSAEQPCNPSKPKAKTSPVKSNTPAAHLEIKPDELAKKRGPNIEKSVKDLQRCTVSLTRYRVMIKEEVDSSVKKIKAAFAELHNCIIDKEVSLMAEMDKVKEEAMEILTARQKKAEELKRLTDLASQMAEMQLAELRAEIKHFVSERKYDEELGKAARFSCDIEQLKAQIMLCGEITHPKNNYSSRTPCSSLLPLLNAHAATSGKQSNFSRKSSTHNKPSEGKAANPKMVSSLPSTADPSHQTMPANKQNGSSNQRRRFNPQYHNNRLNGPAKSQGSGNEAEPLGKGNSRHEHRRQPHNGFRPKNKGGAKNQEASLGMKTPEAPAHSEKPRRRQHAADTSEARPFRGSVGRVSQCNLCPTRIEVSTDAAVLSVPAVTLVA
UniProt P19623: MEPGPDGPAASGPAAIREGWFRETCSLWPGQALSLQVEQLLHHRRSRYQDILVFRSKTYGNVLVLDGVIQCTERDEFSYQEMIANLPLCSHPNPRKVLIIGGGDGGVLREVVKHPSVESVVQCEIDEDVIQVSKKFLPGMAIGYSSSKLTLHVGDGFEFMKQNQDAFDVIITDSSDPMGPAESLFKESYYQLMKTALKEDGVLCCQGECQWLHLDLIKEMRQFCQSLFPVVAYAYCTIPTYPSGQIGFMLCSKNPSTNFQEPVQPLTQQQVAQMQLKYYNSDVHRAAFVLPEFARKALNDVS
UniProt Q9Y5X1: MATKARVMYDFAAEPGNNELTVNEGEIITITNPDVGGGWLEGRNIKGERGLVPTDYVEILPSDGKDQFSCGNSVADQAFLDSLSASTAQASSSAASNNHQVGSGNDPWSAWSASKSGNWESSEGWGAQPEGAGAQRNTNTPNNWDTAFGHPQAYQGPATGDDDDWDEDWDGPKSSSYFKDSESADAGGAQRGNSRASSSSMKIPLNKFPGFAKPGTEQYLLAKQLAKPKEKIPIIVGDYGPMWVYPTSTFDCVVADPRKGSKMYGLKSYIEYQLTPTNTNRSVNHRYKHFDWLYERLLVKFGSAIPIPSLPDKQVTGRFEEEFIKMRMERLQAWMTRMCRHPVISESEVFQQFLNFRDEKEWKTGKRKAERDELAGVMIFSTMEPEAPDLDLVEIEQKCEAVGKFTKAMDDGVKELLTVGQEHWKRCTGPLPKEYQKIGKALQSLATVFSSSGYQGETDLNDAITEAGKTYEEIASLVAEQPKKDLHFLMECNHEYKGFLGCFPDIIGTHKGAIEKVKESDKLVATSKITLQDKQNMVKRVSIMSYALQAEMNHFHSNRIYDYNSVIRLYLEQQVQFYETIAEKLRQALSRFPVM
UniProt P08047, whole entry, looked up: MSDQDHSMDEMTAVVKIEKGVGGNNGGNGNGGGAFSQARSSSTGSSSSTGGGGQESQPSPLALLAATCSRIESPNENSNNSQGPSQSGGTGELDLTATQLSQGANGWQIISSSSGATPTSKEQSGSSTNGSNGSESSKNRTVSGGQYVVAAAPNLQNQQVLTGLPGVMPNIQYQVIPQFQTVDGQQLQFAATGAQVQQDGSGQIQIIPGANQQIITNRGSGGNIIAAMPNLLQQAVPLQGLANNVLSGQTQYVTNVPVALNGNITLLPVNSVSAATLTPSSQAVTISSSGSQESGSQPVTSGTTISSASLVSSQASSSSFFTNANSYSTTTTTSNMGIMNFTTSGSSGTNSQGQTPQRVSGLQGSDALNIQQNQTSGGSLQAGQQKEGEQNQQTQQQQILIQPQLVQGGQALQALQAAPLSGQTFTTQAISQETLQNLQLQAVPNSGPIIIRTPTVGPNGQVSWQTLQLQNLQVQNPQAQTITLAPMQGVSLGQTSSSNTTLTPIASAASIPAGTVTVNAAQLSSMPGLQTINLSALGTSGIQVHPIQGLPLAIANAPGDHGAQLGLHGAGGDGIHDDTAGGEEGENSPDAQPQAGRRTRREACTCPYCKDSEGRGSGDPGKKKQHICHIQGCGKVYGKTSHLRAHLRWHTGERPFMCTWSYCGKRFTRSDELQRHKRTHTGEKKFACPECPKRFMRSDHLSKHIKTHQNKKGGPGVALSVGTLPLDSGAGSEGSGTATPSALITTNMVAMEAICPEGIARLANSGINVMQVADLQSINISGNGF
UniProt Q92673: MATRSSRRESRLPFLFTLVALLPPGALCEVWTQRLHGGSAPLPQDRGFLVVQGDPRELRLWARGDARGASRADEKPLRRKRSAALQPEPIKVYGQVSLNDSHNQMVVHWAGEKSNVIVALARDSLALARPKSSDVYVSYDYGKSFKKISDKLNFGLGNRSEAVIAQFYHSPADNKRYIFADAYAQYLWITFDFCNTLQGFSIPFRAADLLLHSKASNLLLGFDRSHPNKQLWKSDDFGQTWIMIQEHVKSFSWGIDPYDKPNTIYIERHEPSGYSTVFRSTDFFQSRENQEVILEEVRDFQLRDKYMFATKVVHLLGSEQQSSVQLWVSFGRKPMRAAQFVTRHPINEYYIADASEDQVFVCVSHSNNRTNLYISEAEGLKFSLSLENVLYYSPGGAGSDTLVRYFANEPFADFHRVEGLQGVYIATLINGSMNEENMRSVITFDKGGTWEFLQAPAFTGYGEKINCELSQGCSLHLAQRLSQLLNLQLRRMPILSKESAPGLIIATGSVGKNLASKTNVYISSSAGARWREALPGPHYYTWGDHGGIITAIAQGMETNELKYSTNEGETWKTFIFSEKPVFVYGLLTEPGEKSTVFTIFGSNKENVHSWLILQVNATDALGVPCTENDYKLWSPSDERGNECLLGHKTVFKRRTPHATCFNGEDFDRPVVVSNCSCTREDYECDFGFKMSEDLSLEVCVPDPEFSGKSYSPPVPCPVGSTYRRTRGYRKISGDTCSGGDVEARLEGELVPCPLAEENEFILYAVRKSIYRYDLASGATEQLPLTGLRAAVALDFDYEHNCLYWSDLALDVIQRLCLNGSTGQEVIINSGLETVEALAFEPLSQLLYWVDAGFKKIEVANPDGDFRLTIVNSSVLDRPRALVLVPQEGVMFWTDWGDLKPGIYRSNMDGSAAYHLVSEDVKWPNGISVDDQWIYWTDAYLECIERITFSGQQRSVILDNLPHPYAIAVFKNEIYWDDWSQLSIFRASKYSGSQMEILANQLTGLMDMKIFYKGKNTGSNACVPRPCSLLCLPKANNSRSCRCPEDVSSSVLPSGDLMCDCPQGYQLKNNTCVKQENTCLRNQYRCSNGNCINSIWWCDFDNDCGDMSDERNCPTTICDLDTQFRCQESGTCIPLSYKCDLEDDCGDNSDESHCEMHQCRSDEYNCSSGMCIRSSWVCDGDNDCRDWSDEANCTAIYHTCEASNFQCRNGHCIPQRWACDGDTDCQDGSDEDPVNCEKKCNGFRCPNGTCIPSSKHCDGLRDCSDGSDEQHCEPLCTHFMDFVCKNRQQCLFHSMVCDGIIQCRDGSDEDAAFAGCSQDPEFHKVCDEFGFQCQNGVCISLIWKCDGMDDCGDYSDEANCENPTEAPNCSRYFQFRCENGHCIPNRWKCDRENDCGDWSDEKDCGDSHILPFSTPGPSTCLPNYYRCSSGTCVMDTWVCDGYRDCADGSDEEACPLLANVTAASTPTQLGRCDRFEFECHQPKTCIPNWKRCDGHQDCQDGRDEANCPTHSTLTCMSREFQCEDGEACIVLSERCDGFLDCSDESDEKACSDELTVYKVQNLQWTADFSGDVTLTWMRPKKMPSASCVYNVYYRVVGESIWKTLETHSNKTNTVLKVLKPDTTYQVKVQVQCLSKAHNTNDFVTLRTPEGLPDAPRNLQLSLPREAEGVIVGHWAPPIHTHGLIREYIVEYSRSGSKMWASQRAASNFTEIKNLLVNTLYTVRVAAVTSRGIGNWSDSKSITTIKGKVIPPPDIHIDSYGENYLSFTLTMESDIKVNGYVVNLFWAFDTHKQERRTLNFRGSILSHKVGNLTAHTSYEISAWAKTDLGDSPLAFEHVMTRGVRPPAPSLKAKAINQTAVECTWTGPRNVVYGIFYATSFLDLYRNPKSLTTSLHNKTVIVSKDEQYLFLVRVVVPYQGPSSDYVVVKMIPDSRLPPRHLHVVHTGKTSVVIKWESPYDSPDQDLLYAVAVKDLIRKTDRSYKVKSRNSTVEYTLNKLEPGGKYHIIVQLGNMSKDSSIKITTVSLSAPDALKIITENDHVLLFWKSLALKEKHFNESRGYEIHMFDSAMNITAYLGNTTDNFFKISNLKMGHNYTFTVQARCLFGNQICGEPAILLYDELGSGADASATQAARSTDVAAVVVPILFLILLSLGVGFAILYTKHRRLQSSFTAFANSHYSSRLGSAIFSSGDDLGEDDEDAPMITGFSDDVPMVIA
UniProt P09132: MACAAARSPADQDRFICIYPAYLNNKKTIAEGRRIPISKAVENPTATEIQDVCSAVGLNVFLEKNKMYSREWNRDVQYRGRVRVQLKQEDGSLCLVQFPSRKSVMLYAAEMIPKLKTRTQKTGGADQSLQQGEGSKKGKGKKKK
UniProt Q8N5C6: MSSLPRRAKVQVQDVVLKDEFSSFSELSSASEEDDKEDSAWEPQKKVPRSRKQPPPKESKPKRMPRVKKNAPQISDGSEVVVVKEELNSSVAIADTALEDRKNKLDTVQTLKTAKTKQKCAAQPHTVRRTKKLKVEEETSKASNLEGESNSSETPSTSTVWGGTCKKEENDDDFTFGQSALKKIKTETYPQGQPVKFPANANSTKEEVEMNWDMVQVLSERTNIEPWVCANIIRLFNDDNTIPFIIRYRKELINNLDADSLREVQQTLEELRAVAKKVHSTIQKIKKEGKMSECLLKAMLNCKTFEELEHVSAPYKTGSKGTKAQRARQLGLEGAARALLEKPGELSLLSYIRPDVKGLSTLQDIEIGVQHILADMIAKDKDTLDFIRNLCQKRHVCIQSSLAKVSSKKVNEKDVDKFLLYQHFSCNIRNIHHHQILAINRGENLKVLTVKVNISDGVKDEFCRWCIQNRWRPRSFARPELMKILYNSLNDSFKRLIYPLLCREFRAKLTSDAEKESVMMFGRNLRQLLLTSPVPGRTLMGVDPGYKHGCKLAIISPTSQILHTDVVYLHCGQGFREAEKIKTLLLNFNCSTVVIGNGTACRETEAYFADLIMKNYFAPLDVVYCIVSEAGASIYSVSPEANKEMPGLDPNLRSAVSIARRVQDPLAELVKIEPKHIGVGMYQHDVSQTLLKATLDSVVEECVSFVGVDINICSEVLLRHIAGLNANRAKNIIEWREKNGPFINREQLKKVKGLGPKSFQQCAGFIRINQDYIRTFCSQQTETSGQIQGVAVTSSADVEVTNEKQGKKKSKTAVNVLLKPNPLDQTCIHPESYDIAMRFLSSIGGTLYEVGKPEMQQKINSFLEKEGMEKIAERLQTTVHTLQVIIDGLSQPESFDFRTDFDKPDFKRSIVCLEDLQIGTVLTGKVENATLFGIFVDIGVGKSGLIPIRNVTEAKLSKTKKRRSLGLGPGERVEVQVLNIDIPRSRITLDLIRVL
UniProt P00441, whole entry, looked up: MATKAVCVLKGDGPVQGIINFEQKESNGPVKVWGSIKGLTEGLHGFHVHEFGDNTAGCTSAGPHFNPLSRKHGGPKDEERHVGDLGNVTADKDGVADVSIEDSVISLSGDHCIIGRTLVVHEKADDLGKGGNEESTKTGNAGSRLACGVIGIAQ
UniProt Q9UNH6: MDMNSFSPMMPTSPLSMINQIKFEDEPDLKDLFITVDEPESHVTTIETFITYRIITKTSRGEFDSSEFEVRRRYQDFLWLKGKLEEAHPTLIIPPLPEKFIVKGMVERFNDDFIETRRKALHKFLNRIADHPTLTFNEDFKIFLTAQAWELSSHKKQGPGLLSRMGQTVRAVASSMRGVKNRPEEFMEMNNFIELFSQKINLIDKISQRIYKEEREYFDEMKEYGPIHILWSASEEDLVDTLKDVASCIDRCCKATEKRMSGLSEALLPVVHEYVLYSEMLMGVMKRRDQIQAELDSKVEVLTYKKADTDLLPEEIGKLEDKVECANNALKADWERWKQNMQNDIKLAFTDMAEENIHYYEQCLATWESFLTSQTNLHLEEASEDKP
UniProt Q8NCJ5: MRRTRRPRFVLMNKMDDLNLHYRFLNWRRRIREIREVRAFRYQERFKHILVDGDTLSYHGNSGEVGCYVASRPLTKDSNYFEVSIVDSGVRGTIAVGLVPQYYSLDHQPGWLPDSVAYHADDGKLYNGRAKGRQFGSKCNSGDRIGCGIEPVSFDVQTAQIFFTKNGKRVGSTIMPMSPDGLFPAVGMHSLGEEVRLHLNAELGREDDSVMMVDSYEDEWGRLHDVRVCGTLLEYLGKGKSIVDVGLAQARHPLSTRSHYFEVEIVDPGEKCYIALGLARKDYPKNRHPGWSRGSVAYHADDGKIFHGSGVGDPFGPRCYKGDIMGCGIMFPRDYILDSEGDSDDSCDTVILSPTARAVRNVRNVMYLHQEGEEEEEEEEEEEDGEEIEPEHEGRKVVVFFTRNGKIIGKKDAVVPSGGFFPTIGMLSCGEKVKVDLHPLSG

Compound in this assay: CC1Cc2ccccc2N1C(=O)C1CCCN(C1)C(=O)CCl (mixture of isomers) [TRIM25 ligand 11 (diastereomer mixture)]
The experiment in a line: probe-labelled cysteine peptide fold change vs DMSO (competition) (log2 fold change); higher = less target engagement (more negative = stronger competition). The conditions noted are these: 10 µM; THP-1; incubation time: 4 h.
Regarding “SPTLC1_O15269_133_YGVGTCGPR (UniProt O15269)”, the “probe-labelled cysteine peptide fold change” value was -0.136. Take “SPATS2L_Q9NUQ6_367_TPCSSLLPLLNAHAATSGK (UniProt Q9NUQ6)”: the “probe-labelled cysteine peptide fold change” value turned out to be 0.0873. In the case of “SRP68_Q9UHB9_525_CSLQAAAILDANDAHQTETSSSQVK (UniProt Q9UHB9)” it was 0.0932; in that of “SRM_P19623_205+209_EDGVLCCQGECQWLHLDLIK (UniProt P19623)”, 0.109. Under “SORBS3_O60504_645_EGDRVDVMQQCDDGWFVGVSR (UniProt O60504)” stands -0.164. For “SNX9_Q9Y5X1_502_GFLGCFPDIIGTHK (UniProt Q9Y5X1)”, the “probe-labelled cysteine peptide fold change” value is 0.0786.

With “SPAG5_Q96R06_420_HSTSETEQLLCGRPPDLTALSR (UniProt Q96R06)”, the “probe-labelled cysteine peptide fold change” value is -0.0146. In the case of “SNRPD2_P62316_46_NNTQVLINCR (UniProt P62316)” it was -0.0881; in that of “SRP54_P61011_136_TCLICADTFR (UniProt P61011)”, -0.0315; in that of “SNRPD3_P62318_41_LIEAEDNMNCQMSNITVTYRDGR (UniProt P62318)”, -0.143.

For the target “SP1_P08047_633_QHICHIQGCGK (UniProt P08047)”, the “probe-labelled cysteine peptide fold change” value stood at 0.0312. In the case of “SORL1_Q92673_1158_CDLEDDCGDNSDESHCEMHQCR (UniProt Q92673)” it was -0.222.

For “SPEN_Q96T58_1238_MDHVDFDICTK (UniProt Q96T58)”, the “probe-labelled cysteine peptide fold change” value was -0.183. For “SNX5_Q9Y5X3_346+347_LAEAHQQECCQK (UniProt Q9Y5X3)”, the “probe-labelled cysteine peptide fold change” value was 0.072. Consider SRP19_P09132_3_ACAAAR (UniProt P09132), for which the “probe-labelled cysteine peptide fold change” value was -0.114. On to “SPATA5L1_Q9BVQ7_104_LLLVPCPPLRR (UniProt Q9BVQ7)”, for which the “probe-labelled cysteine peptide fold change” value is -0.0644. “SRBD1_Q8N5C6_120_CAAQPHTVR (UniProt Q8N5C6)”: the “probe-labelled cysteine peptide fold change” value turned out to be 0.0057.

As to “SRI_P30626_194_RDTAQQGVVNFPYDDFIQCVMSV (UniProt P30626)”, the “probe-labelled cysteine peptide fold change” value came out at 0.2. Take “SRP19_P09132_94_QEDGSLCLVQFPSRK (UniProt P09132)”: the “probe-labelled cysteine peptide fold change” value was -0.133. On to “SPCS2_Q15005_17+26_SGGSGGCSGAGGASNCGTGSGR (UniProt Q15005)”, for which the “probe-labelled cysteine peptide fold change” value was -0.266. As to “SPC25_Q9HBM1_27_STDTSCQMAGLR (UniProt Q9HBM1)”, the “probe-labelled cysteine peptide fold change” value was determined as 0.0363. In the case of “SOD1_P00441_112_DGVADVSIEDSVISLSGDHCIIGR (UniProt P00441)” it was -0.0836; in that of “SPECC1_Q5M775_633_EICDHQAEQLSR (UniProt Q5M775)”, -0.00943. For “SPTAN1_Q13813_1454_DCEQAENWMAAR (UniProt Q13813)”, the “probe-labelled cysteine peptide fold change” value is -0.103. Under “SNX27_Q96L92_456_LHACTEEGQLENQVIAFEWDEMQR (UniProt Q96L92)” stands 0.194; under “SNUPN_O95149_356_GSSHSPDHPGCLMEN (UniProt O95149)”, 0.0268. Turning to “SP1_P08047_606_EACTCPYCK (UniProt P08047)”, the “probe-labelled cysteine peptide fold change” value was determined as 0.0603. Under SOD1_P00441_7_AVCVLK (UniProt P00441) stands -0.114; under “SON_P18583-2_2133_DLMANATCFR (UniProt P18583)”, 0.0436; under “SORL1_Q92673_1302_QQCLFHSMVCDGIIQCR (UniProt Q92673)”, 0.0347. In the case of “SNX7_Q9UNH6_325_VECANNALK (UniProt Q9UNH6)” it was 0.134; in that of “SPTBN1_Q01082_1389_AELFTQSCADLDK (UniProt Q01082)”, 0.0044; in that of “SRBD1_Q8N5C6_571_LAIISPTSQILHTDVVYLHCGQGFR (UniProt Q8N5C6)”, 0.173. In the case of “SP100_P23497_266+270_EMPCPLPCDEESPEAELHNHGIQINSCSVR (UniProt P23497)” it was -0.363; in that of “SPRYD3_Q8NCJ5_272_CYIALGLAR (UniProt Q8NCJ5)”, -0.00509.

The record behind these values is the supplement of paper PMC12067093, “Discovery and optimisation of a covalent ligand for TRIM25 and its application to targeted protein ubiquitination” (Chemical Science, 2025).
